{"source": "PubChem BioAssay AID1508588 (Peter MacCallum Cancer Centre, 2020)", "aim": "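Which gene losses make BRAF-mutant melanoma cells more responsive to vemurafenib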 (primary screen)", "cell system": "human WM266.4 melanoma cells (BRAF V600 mutant)", "reagent": "siRNA pool against human genes, 40 nM", "time to read-out": "96 h from transfection to read-out", "treatment": "vemurafenib 300 nM (about IC25), added 48 h after transfection, for 48 h; comparison arm got DMSO vehicle only", "read-out": "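Cell gain (DAPI nuclei at end minus before drug, mean of two replicates) and medium lactate by absorbance per cell, both as ratio to non-targeting siRNA, also grouped into fold-change classes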", "scale": "cell gain with vemurafenib: higher = more cell gain than with non-targeting siRNA; lactate per cell with vemurafenib: higher = more lactate made per cell", "active means": "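a knock-down counts as enhancing when its fold-change classes with vehicle and with vemurafenib, taken together, show a stronger drug effect on cell gain or lactate per cell; exact class pairs not stated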", "meaning of the calls": "active = enhances vemurafenib effect; inactive = no enhancement seen", "note": "This is an unselected part of about 18,000 reagents tested. 790 of them (4.4%) were called active. 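Calls rest on a combination of fold-change classes in drug and vehicle arms, not all shown here.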 A reagent listed more than once was tested more than once; the source does not tell the runs apart. Reagent sequences are not shown."}
{"gene": "MORN3", "cell gain with vemurafenib": 1, "lactate per cell with vemurafenib": 0.55, "call": "inactive"}
{"gene": "CCL4L2", "cell gain with vemurafenib": 0.9, "lactate per cell with vemurafenib": 0.6, "call": "inactive"}
{"gene": "DTWD1", "cell gain with vemurafenib": 0.45, "lactate per cell with vemurafenib": 1.04, "call": "inactive"}
{"gene": "HOXB7", "cell gain with vemurafenib": 0.7, "lactate per cell with vemurafenib": 1.14, "call": "inactive"}
{"gene": "SLC4A5", "cell gain with vemurafenib": 1.03, "lactate per cell with vemurafenib": 0.9, "call": "inactive"}
{"gene": "RBM46", "cell gain with vemurafenib": 0.48, "lactate per cell with vemurafenib": 1.19, "call": "inactive"}
{"gene": "CCM2L", "cell gain with vemurafenib": 0.58, "lactate per cell with vemurafenib": 0.48, "call": "inactive"}
{"gene": "CHCHD7", "cell gain with vemurafenib": 1.03, "lactate per cell with vemurafenib": 0.82, "call": "inactive"}
{"gene": "NFKB1", "cell gain with vemurafenib": 0.3, "lactate per cell with vemurafenib": 1.32, "call": "inactive"}
{"gene": "LMTK3", "cell gain with vemurafenib": 0.15, "lactate per cell with vemurafenib": 1.02, "call": "inactive"}
{"gene": "LMTK3", "cell gain with vemurafenib": 0.51, "lactate per cell with vemurafenib": 0.88, "call": "inactive"}
{"gene": "CGB5", "cell gain with vemurafenib": 0.47, "lactate per cell with vemurafenib": 0.96, "call": "inactive"}
{"gene": "ITGB8", "cell gain with vemurafenib": 0.22, "lactate per cell with vemurafenib": 1.28, "call": "inactive"}
{"gene": "PSMD8", "cell gain with vemurafenib": -0.06, "lactate per cell with vemurafenib": 3.23, "call": "inactive"}
{"gene": "PTPRH", "cell gain with vemurafenib": 0.41, "lactate per cell with vemurafenib": 0.82, "call": "inactive"}
{"gene": "GGT6", "cell gain with vemurafenib": 0.19, "lactate per cell with vemurafenib": 1.41, "call": "inactive"}
{"gene": "CDIPT", "cell gain with vemurafenib": 0.62, "lactate per cell with vemurafenib": 1.27, "call": "inactive"}
{"gene": "PHOSPHO1", "cell gain with vemurafenib": 0.67, "lactate per cell with vemurafenib": 0.9, "call": "inactive"}
{"gene": "MARVELD2", "cell gain with vemurafenib": 0.62, "lactate per cell with vemurafenib": 0.85, "call": "inactive"}
{"gene": "COL4A5", "cell gain with vemurafenib": 0.92, "lactate per cell with vemurafenib": 0.4, "call": "active"}
{"gene": "TIMCC", "cell gain with vemurafenib": 0.64, "lactate per cell with vemurafenib": 0.34, "call": "inactive"}
{"gene": "SLC22A25", "cell gain with vemurafenib": 0.41, "lactate per cell with vemurafenib": 1.12, "call": "inactive"}
{"gene": "OR5D16", "cell gain with vemurafenib": 0.68, "lactate per cell with vemurafenib": 0.65, "call": "inactive"}
{"gene": "OR6M1", "cell gain with vemurafenib": 0.76, "lactate per cell with vemurafenib": 0.6, "call": "inactive"}
{"gene": "ADAMDEC1", "cell gain with vemurafenib": 0.53, "lactate per cell with vemurafenib": 0.45, "call": "inactive"}
{"gene": "IGF1", "cell gain with vemurafenib": 0.54, "lactate per cell with vemurafenib": 1.58, "call": "inactive"}
{"gene": "TSNARE1", "cell gain with vemurafenib": 0.51, "lactate per cell with vemurafenib": 0.86, "call": "inactive"}
{"gene": "RBM24", "cell gain with vemurafenib": 0.34, "lactate per cell with vemurafenib": 1.03, "call": "inactive"}
{"gene": "GPR142", "cell gain with vemurafenib": 0.88, "lactate per cell with vemurafenib": 0.78, "call": "inactive"}
{"gene": "SLX4IP", "cell gain with vemurafenib": 0.92, "lactate per cell with vemurafenib": 0.58, "call": "inactive"}
{"gene": "HSPA6", "cell gain with vemurafenib": 0.52, "lactate per cell with vemurafenib": 0.8, "call": "inactive"}
{"gene": "EMC4", "cell gain with vemurafenib": 0.5, "lactate per cell with vemurafenib": 0.92, "call": "inactive"}
{"gene": "COG1", "cell gain with vemurafenib": 0.69, "lactate per cell with vemurafenib": 1.36, "call": "inactive"}
{"gene": "SSX2", "cell gain with vemurafenib": 0.51, "lactate per cell with vemurafenib": 0.68, "call": "inactive"}
{"gene": "SLC38A5", "cell gain with vemurafenib": 0.33, "lactate per cell with vemurafenib": 0.4, "call": "active"}
{"gene": "ZNF833P", "cell gain with vemurafenib": 0.69, "lactate per cell with vemurafenib": 0.58, "call": "inactive"}
{"gene": "COPS7B", "cell gain with vemurafenib": 0.55, "lactate per cell with vemurafenib": 0.82, "call": "inactive"}
{"gene": "LEKR1", "cell gain with vemurafenib": 0.12, "lactate per cell with vemurafenib": 2.21, "call": "inactive"}
{"gene": "PIR", "cell gain with vemurafenib": 0.5, "lactate per cell with vemurafenib": 1.31, "call": "inactive"}
{"gene": "BCL11B", "cell gain with vemurafenib": 0, "lactate per cell with vemurafenib": 1.62, "call": "inactive"}

Not a retest: entries from further up.
{"gene": "RBM46", "cell gain with vemurafenib": 0.48, "lactate per cell with vemurafenib": 1.19, "call": "inactive"}
{"gene": "CCM2L", "cell gain with vemurafenib": 0.58, "lactate per cell with vemurafenib": 0.48, "call": "inactive"}
